Experimental findings from publication PMC7560216 are described below.

Assay [1] has as its target T1, Apl5-TurboID-V5 (S. cerevisiae) (UniProt Q08951).
T1 sequence: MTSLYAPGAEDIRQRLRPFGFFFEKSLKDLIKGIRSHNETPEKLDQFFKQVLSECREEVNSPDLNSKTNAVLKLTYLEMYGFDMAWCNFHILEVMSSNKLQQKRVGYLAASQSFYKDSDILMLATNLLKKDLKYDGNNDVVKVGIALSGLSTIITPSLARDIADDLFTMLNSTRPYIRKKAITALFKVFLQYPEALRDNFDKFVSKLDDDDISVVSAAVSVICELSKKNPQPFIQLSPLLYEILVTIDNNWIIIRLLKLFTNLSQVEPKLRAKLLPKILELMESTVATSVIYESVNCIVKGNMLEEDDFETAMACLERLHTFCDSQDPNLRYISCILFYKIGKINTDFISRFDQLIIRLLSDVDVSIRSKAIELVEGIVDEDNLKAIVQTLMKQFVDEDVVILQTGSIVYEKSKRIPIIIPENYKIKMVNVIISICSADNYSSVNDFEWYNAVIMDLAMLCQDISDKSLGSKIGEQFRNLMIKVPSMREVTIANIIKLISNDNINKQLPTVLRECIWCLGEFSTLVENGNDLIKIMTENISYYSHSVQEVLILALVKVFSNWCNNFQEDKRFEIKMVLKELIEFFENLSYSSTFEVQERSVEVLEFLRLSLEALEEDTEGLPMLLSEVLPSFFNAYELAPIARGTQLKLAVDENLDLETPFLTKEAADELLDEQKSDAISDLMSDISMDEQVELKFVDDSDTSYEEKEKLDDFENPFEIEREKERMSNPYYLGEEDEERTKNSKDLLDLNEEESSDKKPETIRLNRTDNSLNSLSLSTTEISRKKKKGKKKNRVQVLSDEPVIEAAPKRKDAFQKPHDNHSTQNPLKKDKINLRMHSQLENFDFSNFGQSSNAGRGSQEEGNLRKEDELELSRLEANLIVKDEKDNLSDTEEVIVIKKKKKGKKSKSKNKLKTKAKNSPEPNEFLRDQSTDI
Put plainly: proximity labelling; Apl5-TurboID-V5 in the wild-type background, YPD, 100 μM biotin for 3 h; denaturing lysis, streptavidin beads, label-free mass spectrometry against wild-type cells; n = 3.

In assay [2] the target is T1, Apl5-TurboID-V5 (S. cerevisiae). Put plainly: proximity labelling; Apl5-TurboID in a GAL1pr-Vps41-GFP-Fis1 background, cells grown in YPG; streptavidin-biotin pulldown, label-free mass spectrometry against control cells; n = 3.

No constants are given. Whether binding was seen depends on the method and setting. In cells and extracts the contact can be indirect. These calls come from enrichment with a bait or labelling near it, and not all partners need be listed. Tags and fused reporters may be left off the sequences shown.

B1: Yck3 (protein, UniProt P39962 1-524)
chain: MSQRSSQHIVGIHYAVGPKIGEGSFGVIFEGENILHSCQAQTGSKRDSSIIMANEPVAIKFEPRHSDAPQLRDEFRAYRILNGCVGIPHAYYFGQEGMHNILIIDLLGPSLEDLFEWCGRKFSVKTTCMVAKQMIDRVRAIHDHDLIYRDIKPDNFLISQYQRISPEGKVIKSCASSSNNDPNLIYMVDFGMAKQYRDPRTKQHIPYRERKSLSGTARYMSINTHFGREQSRRDDLESLGHVFFYFLRGSLPWQGLKAPNNKLKYEKIGMTKQKLNPDDLLLNNAIPYQFATYLKYARSLKFDEDPDYDYLISLMDDALRLNDLKDDGHYDWMDLNGGKGWNIKINRRANLHGYGNPNPRVNGNTARNNVNTNSKTRNTTPVATPKQQAQNSYNKDNSKSRISSNPQSFTKQQHVLKKIEPNSKYIPETHSNLQRPIKSQSQTYDSISHTQNSPFVPYSSSKANPKRSNNEHNLPNHYTNLANKNINYQSQRNYEQENDAYSDDENDTFCSKIYKYCCCCFCCC
Consider B1, for which the binding entry in assay [1] was “binds”.

B2: Apl6 (protein, UniProt P46682 1-809)
chain: MVDSIHRIASALDTAKVITREAAAVATSKLGESSYTYYSQNINPQQLVTLLNSRNSREVRDAMKRIISIMASDDDSIDVQLYFADVVKNITTNDTKVKRLIHLYLLRFAENDPNLTLLSINSLQKSLSDSNSELRCFALSALSDMKMSSLAPIILHTVKKLVTDPSAMVRGEVALAIIKLYRAGKNDYHEELLDILKELMADTDPKVISCAVLAYKECYADHLELLHGHFRRYCRIIKQLDSWSQSYLIELLIKYCKQYLPKPTVVDKSSEGSPRSCPLPDKYNEIEYPSYEVVNDPDLDLFLQSLNCLIYSSNPTVILSCCNALYQLASPLQMKNTKFIEALVRTVTMTENQGNKEMLLQAIHFLSILDQTLFLPYTKKFYVFPKDPIVASIWKIQILSTLINESNVKEIFKELKYYVASAHFPENVVIMAVKSLSRCGQLSTSWESHVMKWLIDHMESHNLSASVLDAYVNVIRMLVQKNPTKHLRIIFKLADLLTVQTSLADNARAGIVWLFGEIASIEFKICPDVLRRLIQNFSNEGPETRCQILVLSAKLLSYDIDNFKQAQVTGSEENNQNPPYYDFSGSRISQMYNAVLYLAKYDDEFDIRDRARMISSLFDSGKYEIVSLLLQAPKPTARSDDFIVSARLETHTPEIKEFFRMLPWNTEITEVGETGNDIREGAELKDYNKYKKSFSSQSFITNNSARSFTSSSNAKLTGINDGDSNSISGKGNVNTFTSQNGKKYRLQSLDEFFSDIPERKSKPRKIIKVVEESSDEDEDESEESSDDDEYSDSSLGTSSSGTSSSHLEL
Turning to B2, the binding result in assay [2] and in assay [1] was “binds” each time.

B3: Vac7 (protein, UniProt P53950 1-1165)
chain: MTEEDRKLTVETETVEAPVANNLLLSNNSNVVAPNPSIPSASTSTSPLHREIVDDSVATANTTSNVVQHNLPTIDNNLMDSDATSHNQDHWHSDINRAGTSMSTSDIPTDLHLEHIGSVSSTNNNSNNALINHNPLSSHLSNPSSSLRNKKSSLLVASNPAFASDVELSKKKPAVISNNMPTSNIALYQTARSANIHGPSSTSASKAFRKASAFSNNTAPSTSNNIGSNTPPAPLLPLPSLSQQNKPKIIERPTMHVTNSREILLGENLLDDTKAKNAPANSTTHDNGPVANDGLRIPNHSNADDNENNNKMKKNKNINSGKNERNDDTSKICTTSTKTAPSTAPLGSTDNTQALTASVSSSNADNHNNNKKKTSSNNNGNNSNSASNKTNADIKNSNADLSASTSNNNAINDDSHESNSEKPTKADFFAARLATAVGENEISDSEETFVYESAANSTKNLIFPDSSSQQQQQQQQPPKQQQQQQNHGITSKISAPLLNNNKKLLSRLKNSRHISTGAILNNTIATISTNPNLNSNVMQNNNNLMSGHNHLDELSSIKQEPPHQLQQQQPPMDVQSVDSYTSDNPDSNVIAKSPDKRSSLVSLSKVSPHLLSSTSSNGNTISCPNVATNSQELEPNNDISTKKSLSNSTLRHSSANRNSNYGDNKRPLRTTVSKIFDSNPNGAPLRRYSGVPDHVNLEDYIEQPHNYPTMQNSVKKDEFYNSRNNKFPHGLNFYGDNNVIEEENNGDSSNVNRPQHTNLQHEFIPEDNESDENDIHSMFYYNHKNDLETKPLISDYGEDEDVDDYDRPNATFNSYYGSASNTHELPLHGRMPSRSNNDYYDFMVGNNTGNNNQLNEYTPLRMKRGQRHLSRTNNSIMNGSIHMNGNDDVTHSNINNNDIVGYSPHNFYSRKSPFVKVKNFLYLAFVISSLLMTGFILGFLLATNKELQDVDVVVMDNVISSSDELIFDITVSAFNPGFFSISVSQVDLDIFAKSSYLKCDSNGDCTVMEQERKILQITTNLSLVEESANNDISGGNIETVLLGTAKKLETPLKFQGGAFNRNYDVSVSSVKLLSPGSREAKHENDDDDDDDGDDGDDENNTNERQYKSKPNARDDKEDDTKKWKLLIKHDYELIVRGSMKYEVPFFNTQKSTAIQKDSMVHPGKK
Consider B3, for which the binding entry in assay [2] and in assay [1] was “binds” in each case.

B4: Vps1 (protein, UniProt P21576 1-704)
chain: MDEHLISTINKLQDALAPLGGGSQSPIDLPQITVVGSQSSGKSSVLENIVGRDFLPRGTGIVTRRPLVLQLINRRPKKSEHAKVNQTANELIDLNINDDDKKKDESGKHQNEGQSEDNKEEWGEFLHLPGKKFYNFDEIRKEIVKETDKVTGANSGISSVPINLRIYSPHVLTLTLVDLPGLTKVPVGDQPPDIERQIKDMLLKYISKPNAIILSVNAANTDLANSDGLKLAREVDPEGTRTIGVLTKVDLMDQGTDVIDILAGRVIPLRYGYIPVINRGQKDIEHKKTIREALENERKFFENHPSYSSKAHYCGTPYLAKKLNSILLHHIRQTLPEIKAKIEATLKKYQNELINLGPETMDSASSVVLSMITDFSNEYAGILDGEAKELSSQELSGGARISYVFHETFKNGVDSLDPFDQIKDSDIRTIMYNSSGSAPSLFVGTEAFEVLVKQQIRRFEEPSLRLVTLVFDELVRMLKQIISQPKYSRYPALREAISNQFIQFLKDATIPTNEFVVDIIKAEQTYINTAHPDLLKGSQAMVMVEEKLHPRQVAVDPKTGKPLPTQPSSSKAPVMEEKSGFFGGFFSTKNKKKLAALESPPPVLKATGQMTERETMETEVIKLLISSYFSIVKRTIADIIPKALMLKLIVKSKTDIQKVLLEKLYGKQDIEELTKENDITIQRRKECKKMVEILRNASQIVSSV
On to B4, for which the binding result in assay [1] is “binds”.

B5: Age2 (protein, UniProt P40529 1-298)
chain: MSTSVPVKKALSALLRDPGNSHCADCKAQLHPRWASWSLGVFICIKCAGIHRSLGTHISKVKSVDLDTWKEEHLVKLIQFKNNLRANSYYEATLADELKQRKITDTSSLQNFIKNKYEYKKWIGDLSSIEGLNDSTEPVLHKPSANHSLPASNARLDQSSNSLQKTQTQPPSHLLSTSRSNTSLLNLQVSSLSKTTSNTSVTSSATSIGAANTKTGNRVGEFGQRNDLKKSILSLYSKPSAQTQSQNSFFTSTTPQPCNTPSPFVNTGITATNNNSMNSNSSSNISLDDNELFKNVWS
Turning to B5, the binding entry in assay [2] and in assay [1] was “binds” in each case.

B6: Apm3 (protein, UniProt P38153 1-483)
chain: MYLSFYITDTKNKLIFQYLLGATAPSFKHLWTRVQSTCPQLLEDSSSDDYLDHSMVGRDLEVYKYFSVINKLNYWCLASTSKSKGPLDCFTFLETIDRILLEYFDKDKLSIKKIVNNYDRISLIFNCCVEAGEPNVSDMLYVNKIKEAVPERSDLSKFISSTAHNLQQAVQLPQQRQQQLQQNQISRGSNSLIENEEIVPWRTSRASKHENNELYVDLLETFHVVFEKKKSHLRLLTGSIHGIVDVRSYLNDNPLVAVKLNTMGNDIGIPSLHDCVEINDGVFSPSNITFIPPDGKFRLLEYSVDLSSQVKQSGVRMNSIGLMSLHFQNGLGKDSDEFELSLNIENFKKVSQVDDLKIDLQFNVENADPNEIAYKIKILRNTHGRFENSIIMGQGQWIFDKSTATGTVPVLRGCIEYENTGPNFTKKVDLQTVSLEYSYIGQSASGIYVEAIDIVSGLTIGKNTKLYKGAKYKTQTGNFQVRL
In the case of B6, the binding result in assay [1] is reported as “binds”.

B7: Meh1 (Ego1) (protein, UniProt Q02205 1-184)
chain: MGAVLSCCRNHSGEENEALLREQQAGYGSQGNANDEYDAEQMRLKEHEHEQKLLAREQELRDIVANTNDKLIDISMINNSGIVIQGTDLQEALDKRQQEEGGDSREDERSAGDDNLSGHSVPSSGSAQATTHQTAPRTNTFTLLTSPDSAKISKEQLKKLHSNILNEIFSQSQVNKPGPLTVPF
On to B7, for which the binding result in assay [2] and in assay [1] was “binds” throughout.
